Among the data in paper PMC6353898, “A Rational Approach for Creating Peptides Mimicking Antibody Binding” (Scientific Reports, 2019) are binding values, retold here.

Sequences of proteins named here, by UniProt entry; tags and fusion partners are left off. Residues count along the entry.
UniProt P02769, residues 25-607: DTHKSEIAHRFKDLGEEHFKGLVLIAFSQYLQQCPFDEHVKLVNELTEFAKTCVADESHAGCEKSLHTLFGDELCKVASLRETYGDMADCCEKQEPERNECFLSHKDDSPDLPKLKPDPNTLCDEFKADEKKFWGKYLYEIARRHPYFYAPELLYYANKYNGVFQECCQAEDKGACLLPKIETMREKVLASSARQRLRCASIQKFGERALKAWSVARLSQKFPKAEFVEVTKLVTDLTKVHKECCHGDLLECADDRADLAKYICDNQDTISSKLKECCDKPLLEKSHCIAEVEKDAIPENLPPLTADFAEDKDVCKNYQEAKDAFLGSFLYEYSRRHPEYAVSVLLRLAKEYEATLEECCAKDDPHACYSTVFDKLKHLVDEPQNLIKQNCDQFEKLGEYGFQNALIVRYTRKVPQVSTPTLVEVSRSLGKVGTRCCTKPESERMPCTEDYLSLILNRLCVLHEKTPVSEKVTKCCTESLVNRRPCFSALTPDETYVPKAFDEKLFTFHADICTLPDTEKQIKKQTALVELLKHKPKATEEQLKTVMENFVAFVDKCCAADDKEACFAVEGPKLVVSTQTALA

In the assay the target is bovine serum albumin (bovine) (UniProt P02769). Briefly: SPR; EGFR (20 µg/mL) or BSA (20 µg/mL) covalently attached (EDC/NHS) to a carboxymethylated dextran chip; peptides injected as analytes at 15 µL/min; 25 °C; PBS with 0.01% Tween 20, pH 7.4; global fit, 1:1 Langmuir model with mass transport; KD from koff/kon; both purified. A general note: Surface plasmon resonance follows binding to a sensor surface in real time, without labels.

No constants are given. Whether binding was seen depends on the method and setting.

WSGENGPGFYDYEA (designed binder) [Pep11]: the binding result was “no binding”.
